For at least one entry, the source does not settle the construct or the ends of the probe.
Assays:
DLX1 = DLX1 (UniProt Q64317); test: EMSA; conditions: 1 ug poly-dI-dC, competed by 100-fold unlabeled probe, supershifted by DLX1 antibody, not by control IgG; EMSA: 20% glycerol, 5 mM MgCl2, 2.5 mM EDTA, 2.5 mM DTT, 250 mM NaCl, 50 mM Tris-HCl pH 7.5, 1 ug poly-dI-dC, 30 min at room temperature; recombinant protein; label: 32P (alpha-32P-dATP, Klenow fill-in); probe letters rebuilt from the primers and the genome; part of a longer molecule
DLX2 = DLX2 (UniProt P40764); test: EMSA; conditions: 1 ug poly-dI-dC, competed by 100-fold unlabeled probe, supershifted by DLX2 antibody, not by control IgG; EMSA: 20% glycerol, 5 mM MgCl2, 2.5 mM EDTA, 2.5 mM DTT, 250 mM NaCl, 50 mM Tris-HCl pH 7.5, 1 ug poly-dI-dC, 30 min at room temperature; recombinant protein; label: 32P (alpha-32P-dATP, Klenow fill-in); probe letters rebuilt from the primers and the genome; part of a longer molecule

The chains behind the UniProt entries cited, without tags or fusion partners. Where a name states a change or a piece, a line headed by the entry shows the natural chain unless it says otherwise.
UniProt Q64317: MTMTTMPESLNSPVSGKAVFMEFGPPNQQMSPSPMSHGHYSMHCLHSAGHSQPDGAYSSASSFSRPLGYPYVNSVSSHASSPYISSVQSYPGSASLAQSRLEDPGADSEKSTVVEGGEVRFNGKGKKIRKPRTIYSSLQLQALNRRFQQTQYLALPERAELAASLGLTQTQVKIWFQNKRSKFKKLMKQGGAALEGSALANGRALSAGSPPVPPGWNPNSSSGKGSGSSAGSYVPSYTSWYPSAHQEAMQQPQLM
UniProt P40764: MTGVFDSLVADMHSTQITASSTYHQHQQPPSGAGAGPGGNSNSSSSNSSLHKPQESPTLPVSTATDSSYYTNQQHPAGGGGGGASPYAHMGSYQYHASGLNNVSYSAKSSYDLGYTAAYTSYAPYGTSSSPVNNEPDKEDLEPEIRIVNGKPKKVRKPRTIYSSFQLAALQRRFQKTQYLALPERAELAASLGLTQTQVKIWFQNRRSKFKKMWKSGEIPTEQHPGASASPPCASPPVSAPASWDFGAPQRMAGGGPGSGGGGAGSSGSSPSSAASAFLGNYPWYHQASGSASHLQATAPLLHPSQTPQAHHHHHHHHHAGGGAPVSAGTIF

## CTCAGTGTTGAGTGAGGAAGGACCACATGCCCAAAGAAATTCTGAGCAGAGTAGGAAACATCAGGAAGACAAATGTTTTCCTCCACCTAATTCCCCCAGACTGTTACAGGGAGTGAGGTACAGAAAGAGAAAAAACTTTGTGGTATTTCAACTCCTAAGTAGTGTGTTTATGTGTATAAATAAAGGCACAAAAGATACCAAGGAGGGAAACCGCATGGGGAAGGATTCTTCCCTTTCATTAGGTGTCTAATTAGATGTAAAGTCAAAAGCAGCCCTGAGGACTTGCCCAAACACTATTGTGGCAACAGTCTGCTGAAC (double strand) [3bP4 (S4-pro) Brn3b promoter fragment]
DLX1
  binding result: binds
DLX2
  binding result: binds
